{
  "source": "patent US7521047",
  "binders": {"B1": {"name": "MS-GPC-1 Fab (Fab, V domains shown)", "VH": "QVQLKESGPALVKPTQTLTLTCTFSGFSLSTSGVGVGWIRQPPGKALEWLALIDWDDDKYYSTSLKTRLTISKDTSKNQVVLTMTNMDPVDTATYYCARQYGHRGGFDHWGQGTLVTVSS", "VL": "DIVLTQPPSVSGAPGQRVTISCSGSSSNIGSNYVSWYQQLPGTAPKLLIYDNNQRPSGVPDRFSGSKSGTSASLAITGLQSEDEADYYCQSYDFNESVFGGGTKLTVLG"}, "B2": {"name": "MS-GPC-10 Fab (Fab, V domains shown)", "VH": "B1 VH with Y101L, G102H, H103Y, H109L", "VL": "B1 VL with F94L, N95T, E96M, S97G"}},
  "key": {"[1]": {"biological_target": "human-mouse chimeric molecule DR-IE (human; murine)", "test": "ELISA (FIG. 1b)"}, "[2]": {"biological_target": "human-mouse chimeric molecule DR-IE (human; murine)", "test": "ELISA, coated antigen"}, "lysozyme": {"biological_target": "lysozyme", "test": "ELISA, coated antigen"}, "transferrin": {"biological_target": "transferrin", "test": "ELISA, coated antigen"}},
  "note": "Residue numbers refer to the chain shown, from its start. No constants are given. Whether binding was seen depends on the method and setting. For some assays here: A result given as binding can be weak or reduced; the word gives no strength.",
  "data": [
    {"binder": "B1", "values": [
      {"measurement": "binding", "setting": "[1]", "value": "binds"},
      {"measurement": "binding", "setting": "[2]", "value": "binds"},
      {"measurement": "binding", "setting": "lysozyme", "value": "no binding"},
      {"measurement": "binding", "setting": "transferrin", "value": "no binding"}
    ]},
    {"binder": "B2", "values": [
      {"measurement": "binding", "setting": "[1]", "value": "binds"},
      {"measurement": "binding", "setting": "[2]", "value": "binds"},
      {"measurement": "binding", "setting": "lysozyme", "value": "no binding"},
      {"measurement": "binding", "setting": "transferrin", "value": "no binding"}
    ]}
  ]
}
